Data as given in article PMC13522589, “Weak SLP-76/PLC-γ1 interaction fine-tunes T cell receptor signal strength to optimize T cell responsiveness” (Nature Communications, 2026).
These are yes or no findings as the source states them, for the method shown.

The chains behind the UniProt entries cited, without tags or fusion partners. Where a name states a change or a piece, a line headed by the entry shows the natural chain unless it says otherwise.
UniProt Q13094: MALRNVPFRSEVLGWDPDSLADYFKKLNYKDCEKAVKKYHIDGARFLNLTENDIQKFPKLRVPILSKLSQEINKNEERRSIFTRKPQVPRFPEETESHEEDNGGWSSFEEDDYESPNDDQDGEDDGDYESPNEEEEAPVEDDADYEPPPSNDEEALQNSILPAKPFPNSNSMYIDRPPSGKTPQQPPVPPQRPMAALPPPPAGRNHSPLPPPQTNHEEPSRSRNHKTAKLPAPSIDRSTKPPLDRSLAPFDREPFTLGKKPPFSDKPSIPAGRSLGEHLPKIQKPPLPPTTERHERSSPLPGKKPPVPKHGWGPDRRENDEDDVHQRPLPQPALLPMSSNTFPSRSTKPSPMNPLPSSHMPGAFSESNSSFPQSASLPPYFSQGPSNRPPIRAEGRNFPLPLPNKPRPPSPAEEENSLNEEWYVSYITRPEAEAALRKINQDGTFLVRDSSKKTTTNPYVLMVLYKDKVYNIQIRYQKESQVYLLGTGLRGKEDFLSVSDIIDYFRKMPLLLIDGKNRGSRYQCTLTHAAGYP

Tests used:
[1] = target: T1, Phospholipase C-γ1 (PLC-γ1), 1–1219 (UniProt P19174 1-1219); assay: ITC; VP-ITC or PEAQ-ITC; 20 mM Hepes pH 7.4, 100 mM NaCl, 0.1 mM DTT, 5 °C; 4 µM in the cell, 40 µM in the syringe; fit to a single binding site with 1:1 stoichiometry; both purified
T1 sequence (looked up): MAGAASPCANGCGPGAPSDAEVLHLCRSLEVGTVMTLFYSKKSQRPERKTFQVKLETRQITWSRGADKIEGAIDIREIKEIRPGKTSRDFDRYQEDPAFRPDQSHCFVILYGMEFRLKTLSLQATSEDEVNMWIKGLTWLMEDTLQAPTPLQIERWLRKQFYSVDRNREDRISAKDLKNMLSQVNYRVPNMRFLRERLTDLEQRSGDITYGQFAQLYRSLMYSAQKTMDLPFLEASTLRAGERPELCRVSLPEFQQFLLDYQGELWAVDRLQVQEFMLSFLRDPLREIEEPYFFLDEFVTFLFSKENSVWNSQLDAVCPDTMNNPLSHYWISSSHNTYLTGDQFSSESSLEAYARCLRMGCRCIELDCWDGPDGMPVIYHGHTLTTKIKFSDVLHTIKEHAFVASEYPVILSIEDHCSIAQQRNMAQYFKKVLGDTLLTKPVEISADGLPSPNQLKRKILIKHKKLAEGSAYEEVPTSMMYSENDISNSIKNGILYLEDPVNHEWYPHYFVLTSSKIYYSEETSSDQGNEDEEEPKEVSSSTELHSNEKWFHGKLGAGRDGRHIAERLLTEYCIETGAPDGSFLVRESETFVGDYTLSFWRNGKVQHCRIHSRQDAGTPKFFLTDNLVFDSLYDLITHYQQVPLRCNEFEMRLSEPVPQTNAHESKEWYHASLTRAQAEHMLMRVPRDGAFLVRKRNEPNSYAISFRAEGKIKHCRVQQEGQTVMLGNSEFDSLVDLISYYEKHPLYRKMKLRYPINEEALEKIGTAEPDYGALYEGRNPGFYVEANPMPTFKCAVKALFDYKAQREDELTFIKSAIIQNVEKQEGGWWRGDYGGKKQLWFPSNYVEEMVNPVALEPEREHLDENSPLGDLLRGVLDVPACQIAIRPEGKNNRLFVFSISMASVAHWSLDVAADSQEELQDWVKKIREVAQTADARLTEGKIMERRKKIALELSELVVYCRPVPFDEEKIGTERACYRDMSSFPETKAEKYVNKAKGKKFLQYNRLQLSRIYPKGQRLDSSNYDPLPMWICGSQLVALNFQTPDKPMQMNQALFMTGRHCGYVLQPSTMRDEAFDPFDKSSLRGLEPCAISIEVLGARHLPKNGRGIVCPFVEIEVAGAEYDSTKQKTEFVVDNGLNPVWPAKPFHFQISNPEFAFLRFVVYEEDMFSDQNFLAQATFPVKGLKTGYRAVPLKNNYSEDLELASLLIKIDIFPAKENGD

[2] = target: full-length mouse ITK with C96E/T110I mutations (His6-3C-Halo-tev-ITK(C96E/T110I)-FLAG) (mouse); assay: as above

“SLP-76^NA polypeptide (aa 103–258, no affinity mutant) (from UniProt Q13094) (domain or fragment)” was tested, and the binding [1] was “no binding (tested: 4 µM in the cell, 40 µM in the syringe)”.

B1: SLP-76 PRR peptide (aa 185–200), wild type (peptide, UniProt Q13094 185-200, looked up)
peptide: QPPVPPQRPMAALPPP
notes: also called SLP-76 185–200 (WT); SLP-76 PRR_(185–200) peptide
B1 was tested, and the binding [2] was “no binding (tested: 4 µM in the cell, 40 µM in the syringe)”.
